Data as given in PMC7808939.

What was measured:
[1] = target: T1, tagged wild type cyclin D3 (NIH3T3, mass spectrometry bait) (UniProt P30282); experiment: affinity purification with mass spectrometry; tagged wild type cyclin D3 or cyclin D3T283A expressed in NIH3T3 fibroblasts; co-purifying proteins identified by mass spectrometry
T1 sequence: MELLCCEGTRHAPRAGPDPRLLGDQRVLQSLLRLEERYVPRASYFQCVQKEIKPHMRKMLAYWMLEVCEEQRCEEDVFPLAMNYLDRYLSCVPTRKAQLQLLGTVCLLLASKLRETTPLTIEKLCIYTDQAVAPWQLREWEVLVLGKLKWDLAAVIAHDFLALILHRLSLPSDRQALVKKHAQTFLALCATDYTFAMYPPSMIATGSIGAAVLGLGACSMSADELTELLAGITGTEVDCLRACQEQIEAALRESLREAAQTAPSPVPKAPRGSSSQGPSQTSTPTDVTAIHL

[2] = target: T2, tagged cyclin D3T283A (NIH3T3, mass spectrometry bait) (UniProt P30282); experiment: as above
T2 sequence: T1 sequence with T283A

- binding [1]: binds
- binding [2]: no binding
B1: endogenous Fbxl8 (NIH3T3 cells) (protein, UniProt Q8CIG9 1-374)
chain: MGELVDNLPEEVLALIFRDLPLRDLAVATRVCRAWAAAAANSTVWSDKSISCDCELEDLLPPYLSSCLDHIHNLRLEYEPSKKPSRGTATELLTALASRAPRLRGLRLECRGEKPLFDAGQDILGAVHAVCGAAHQLRHLDLRHLPYTLDDTLVLKAAAGCPELRSLFLDNHALVNSVQPTSVLKLLEACPHLRALGLHLASMSRAALELLAAPHRSPFALLALRCACPEDARASPLPDEAWATLSCRHPGLEVELELEPVLPDEAVTRILQPAVPVAVLRLNLSGDTVGPVRFATRHYAETLRALEVRASASPELHTALEELAARCAGLREIHCFCVVRPSVLDAFRAHCPRLRSYTLKLKREPHPWRPTLVR

Residue numbers refer to the chain shown, from its start. No constants are given. Whether binding was seen depends on the method and setting. Binding seen in cells or lysates may run through a third protein. Here binding means that the protein was enriched with, or labelled near, the bait; the list need not be complete. For some assays here: No binding means not detected with the bait. Tags and fused reporters may be left off the sequences shown.
